Test results from US20030152959A1.
No constants are given. Whether binding was seen depends on the method and setting. In cells and extracts the contact can be indirect. Some results given as binding are weak or reduced against the parent protein; the word gives no strength. Sequences can lack the tags named with a protein.

Protein sequences, listed by entry. Tags and fused reporters are not part of them.
UniProt P03372: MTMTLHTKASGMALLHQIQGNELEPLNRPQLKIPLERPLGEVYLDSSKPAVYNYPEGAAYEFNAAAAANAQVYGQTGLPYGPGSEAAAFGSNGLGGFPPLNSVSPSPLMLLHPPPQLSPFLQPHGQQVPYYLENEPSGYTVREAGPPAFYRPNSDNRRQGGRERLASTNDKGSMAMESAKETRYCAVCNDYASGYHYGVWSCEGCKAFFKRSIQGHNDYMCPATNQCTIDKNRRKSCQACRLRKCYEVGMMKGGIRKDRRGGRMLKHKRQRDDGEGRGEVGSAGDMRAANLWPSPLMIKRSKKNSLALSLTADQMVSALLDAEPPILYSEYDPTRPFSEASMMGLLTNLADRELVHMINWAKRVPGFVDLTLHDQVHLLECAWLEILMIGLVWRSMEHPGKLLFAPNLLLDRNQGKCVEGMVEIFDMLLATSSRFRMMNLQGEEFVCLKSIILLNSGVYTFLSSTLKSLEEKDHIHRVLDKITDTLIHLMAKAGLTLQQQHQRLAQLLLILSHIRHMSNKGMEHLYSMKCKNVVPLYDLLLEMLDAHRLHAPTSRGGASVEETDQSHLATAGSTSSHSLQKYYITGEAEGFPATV

Molecular target: estrogen receptor α (ERα) (human) (UniProt P03372)
Test: GST pull-down of 35S-methionine-labelled ERα with GST-ERRα1 deletion series

binding: binds
B1: GST fusion of ERRα1 amino acids 1-173 (protein, human, UniProt P11474 1-173, looked up, not shown: a dimerising Fc or GST)
chain: MSSQVVGIEPLYIKAEPASPDSPKGSSETETEPPVALAPGPAPTRCLPGHKEEEDGEGAGPGEQGGGKLVLSSLPKRLCLVCGDVASGYHYGVASCEACKAFFKRTIQGSIEYSCPASNECEITKRRRKACQACRFTKCLRVGMLKEGVRLDRVRGGRQKYKRRPEVDPLPFP
